Experimental findings from publication PMC10316083, “Thermotoga maritima oriC involves a DNA unwinding element with distinct modules and a DnaA-oligomerizing region with a novel directional binding mode” (The Journal of Biological Chemistry, 2023) are described below.

These are yes or no findings as the source states them, for the method shown. Some results given as binding are weak or reduced against the parent protein; the word gives no strength.

Assay [1] concerns the target Thermotoga maritima DnaA initiator (tmaDnaA), wildtype (Thermotoga maritima) (UniProt P46798). Kind of assay: native gel or EMSA; ADP-bound tmaDnaA on a 30 bp DNA (300 nM) with tmaDnaA boxes 2 and 3; complexes C1 and C2; 8% polyacrylamide gel, GelStar staining; both purified. For orientation: Mobility shift assays separate free from complexed probe on a gel.
Assay [2] concerns the target tmaDnaA R251A (Arg-finger variant) (Thermotoga maritima) (UniProt P46798). Description: native gel or EMSA; ATP-bound tmaDnaA on a 30 bp DNA (300 nM) with the oppositely oriented tmaDnaA boxes 2 and 3; complexes with one (C1) or two (C2) tmaDnaA molecules; 8% polyacrylamide gel, GelStar staining; self-interaction read from the preference for C2 on DNA; both purified.

B1: Thermotoga maritima DnaA initiator (tmaDnaA), wildtype (natural protein, UniProt P46798 1-440, looked up)
chain: MKERILQEIKTRVNRKSWELWFSSFDVKSIEGNKVVFSVGNLFIKEWLEKKYYSVLSKAVKVVLGNDATFEITYEAFEPHSSYSEPLVKKRAVLLTPLNPDYTFENFVVGPGNSFAYHAALEVAKHPGRYNPLFIYGGVGLGKTHLLQSIGNYVVQNEPDLRVMYITSEKFLNDLVDSMKEGKLNEFREKYRKKVDILLIDDVQFLIGKTGVQTELFHTFNELHDSGKQIVICSDREPQKLSEFQDRLVSRFQMGLVAKLEPPDEETRKSIARKMLEIEHGELPEEVLNFVAENVDDNLRRLRGAIIKLLVYKETTGKEVDLKEAILLLKDFIKPNRVKAMDPIDELIEIVAKVTGVPREEILSNSRNVKALTARRIGMYVAKNYLKSSLRTIAEKFNRSHPVVVDSVKKVKDSLLKGNKQLKALIDEVIGEISRRALSG
notes: DnaA chromosomal replication initiator protein of Thermotoga maritima (tmaDnaA); also called WT tmaDnaA; ATP-tmaDnaA; source: purified as described previously (40); plasmid pTHMA-1
B1: the binding result in assay [1] is “binds weakly”.

B2: tmaDnaA R251A (Arg-finger variant) (protein, UniProt P46798 1-440)
chain: MKERILQEIKTRVNRKSWELWFSSFDVKSIEGNKVVFSVGNLFIKEWLEKKYYSVLSKAVKVVLGNDATFEITYEAFEPHSSYSEPLVKKRAVLLTPLNPDYTFENFVVGPGNSFAYHAALEVAKHPGRYNPLFIYGGVGLGKTHLLQSIGNYVVQNEPDLRVMYITSEKFLNDLVDSMKEGKLNEFREKYRKKVDILLIDDVQFLIGKTGVQTELFHTFNELHDSGKQIVICSDREPQKLSEFQDRLVSAFQMGLVAKLEPPDEETRKSIARKMLEIEHGELPEEVLNFVAENVDDNLRRLRGAIIKLLVYKETTGKEVDLKEAILLLKDFIKPNRVKAMDPIDELIEIVAKVTGVPREEILSNSRNVKALTARRIGMYVAKNYLKSSLRTIAEKFNRSHPVVVDSVKKVKDSLLKGNKQLKALIDEVIGEISRRALSG
As to B2, the binding result in assay [2] is recorded as “binds weakly”.
